Data source: PubChem BioAssay AID720505 (Drosophila RNAi Screening Center, 2013)

Test: 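Knock-downs that reduce calcium influx once internal stores are emptied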 (primary screen)
Cells: Drosophila S2R+ cells
Reagents: long dsRNA against Drosophila genes
Conditions: thapsigargin (2 µM) in calcium-free buffer to empty internal stores, then 2 mM calcium added back
Measurement: 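Stores emptied by 2 µM thapsigargin without calcium, then 2 mM calcium re-added; fluo-4 fluorescence followed by FLIPR in 384-well plates, per-well averaged endpoint, raw; two screen passes, some wells retested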
Reading the numbers: calcium signal and retest calcium signal: higher = more calcium entry after store depletion
Hit rule: 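About 1500 genes called as lowering calcium entry, by varying amounts, judged against per-plate control wells with STIM1 as positive and Rho1 as negative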
Meaning of the calls: active = called as lowering calcium entry; inactive = not called
The screen tested about 20,000 reagents; below is an unselected part of those that have a named target and a result. Over the whole deposit, about 2,100 (10%) got an active call. 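Raw plate signals without normalisation; calls rest on control-based scores that were not deposited; replicate 2 separates called from uncalled poorly.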 The numbers tell different reagents against one gene apart. Names joined by + are all predicted targets of the reagent. Not given: the amount of reagent, the time to read-out.

| gene | reagent no. | calcium signal, replicate 1 | calcium signal, replicate 2 | retest calcium signal, replicate 1 | retest calcium signal, replicate 2 | call |
| --- | --- | --- | --- | --- | --- | --- |
| Tbc1d8-9 (TBC1 domain family member 8/9) | 1 | 116 | 81.7 | – | – | inactive |
| Ugt35E1 (UDP-glycosyltransferase family 35 member E1) | 1 | 64.8 | 124 | – | – | active |
| CG32413 | 1 | 159 | 103 | – | – | inactive |
| rhi (rhino) | 1 | 146 | 146 | – | – | inactive |
| CG4882 | 1 | 116 | 239 | – | – | inactive |
| CG12065 | 1 | 117 | 111 | – | – | inactive |
| CG12065 | 2 | 195 | 89 | – | – | inactive |
| PGAP3 (Post-GPI attachment to proteins 3) | 1 | 142 | 111 | – | – | inactive |
| Mocs1 (Molybdenum cofactor synthesis 1) | 1 | 101 | 132 | – | – | inactive |
| Tapdelta (Translocon-associated protein delta) | 1 | 130 | 134 | – | – | inactive |
| mRpS7 (mitochondrial ribosomal protein S7) | 1 | 80.4 | 154 | – | – | inactive |
| CG8353 | 1 | 184 | 154 | – | – | inactive |
| RYa-R (RYamide receptor) | 1 | 117 | 147 | – | – | inactive |
| CG11110 | 1 | 72 | 99.2 | – | – | inactive |
| Chchd2 (Coiled-coil-helix-coiled-coil-helix domain containing 2) | 1 | 112 | 129 | 111 | 109 | inactive |
| Ir92a (Ionotropic receptor 92a) | 1 | 141 | 113 | – | – | inactive |
| DIP-beta (Dpr-interacting protein beta) | 1 | 101 | 11450 | – | – | inactive |
| DIP-beta (Dpr-interacting protein beta) | 2 | 112 | 88.3 | – | – | inactive |
| DIP-beta (Dpr-interacting protein beta) | 3 | 118 | 91.5 | – | – | inactive |
| DIP-beta (Dpr-interacting protein beta) | 4 | 87 | 86.8 | – | – | inactive |
| CG9171 | 1 | 106 | 215 | – | – | inactive |
| CG9171 | 2 | 148 | 95.2 | – | – | inactive |
| CG15293 | 1 | 97.4 | 120 | – | – | inactive |
| CG4960 | 1 | 168 | 119 | – | – | inactive |
| mmd (mind-meld) | 1 | 78.1 | 187 | – | – | inactive |
| mmd (mind-meld) | 2 | 98.7 | 144 | – | – | inactive |
| mmd (mind-meld) | 3 | 90.6 | 156 | – | – | inactive |
| mmd (mind-meld) | 4 | 102 | 161 | – | – | inactive |
| BigH1 (Histone H1 variant BigH1) | 1 | 92.3 | 116 | – | – | inactive |
| ple (pale) | 1 | 78.3 | 61.5 | – | – | inactive |
| kri (krishah) | 1 | 97.9 | 134 | – | – | inactive |
| CG33770 | 1 | 107 | 112 | – | – | inactive |
| Akh (Adipokinetic hormone) | 1 | 95.6 | 85.3 | – | – | inactive |
| CG13110 | 1 | 125 | 189 | 89 | 119 | inactive |
| Mlc-c (Myosin light chain cytoplasmic) | 1 | 109 | 91.5 | – | – | inactive |
| CG7115 | 1 | 96.4 | 111 | – | – | inactive |
| Naa35 (N(alpha)-acetyltransferase 35) | 1 | 175 | 85.3 | – | – | inactive |
| Neu2 (Neuroectoderm-expressed 2) | 1 | 91.7 | 122 | – | – | inactive |
| CG14990 | 1 | 98.6 | 115 | – | – | inactive |
| CG15605 | 1 | 98.9 | 116 | – | – | inactive |
| Sp212 (Serine-peptidase 212) | 1 | 148 | 193 | – | – | inactive |
| dany (distal antenna-young) | 1 | 184 | 88 | – | – | inactive |
| bcd (bicoid) | 1 | 116 | 105 | – | – | inactive |
| CG33791 + CG12105 + CG18170 | 1 | 166 | 103 | – | – | inactive |
| CG2225 | 1 | 192 | 101 | – | – | inactive |
| CG2225 | 2 | 93.2 | 121 | – | – | inactive |
| CG9406 | 1 | 183 | 84.9 | – | – | inactive |

Not a retest: 4 of the entries above.
| gene | reagent no. | calcium signal, replicate 1 | calcium signal, replicate 2 | retest calcium signal, replicate 1 | retest calcium signal, replicate 2 | call |
| --- | --- | --- | --- | --- | --- | --- |
| mmd (mind-meld) | 1 | 78.1 | 187 | – | – | inactive |
| mmd (mind-meld) | 2 | 98.7 | 144 | – | – | inactive |
| mmd (mind-meld) | 3 | 90.6 | 156 | – | – | inactive |
| mmd (mind-meld) | 4 | 102 | 161 | – | – | inactive |

The list goes on.
| gene | reagent no. | calcium signal, replicate 1 | calcium signal, replicate 2 | retest calcium signal, replicate 1 | retest calcium signal, replicate 2 | call |
| --- | --- | --- | --- | --- | --- | --- |
| hoka | 1 | 100 | 81.5 | – | – | inactive |
| jbug (jitterbug) | 1 | 119 | 7224 | – | – | inactive |
| jbug (jitterbug) | 2 | 141 | 80.2 | – | – | inactive |
| jbug (jitterbug) | 3 | 99.2 | 175 | – | – | inactive |
| jbug (jitterbug) | 4 | 174 | 208 | – | – | inactive |
| CG8180 | 1 | 173 | 139 | – | – | inactive |
| CG8180 | 2 | 149 | 158 | – | – | inactive |
| DIP-alpha (Dpr-interacting protein alpha) | 1 | 117 | 157 | – | – | inactive |
| DIP-alpha (Dpr-interacting protein alpha) | 2 | 97 | 126 | – | – | inactive |
| DIP-alpha (Dpr-interacting protein alpha) | 3 | 127 | 108 | – | – | inactive |
| Reepl1 (Receptor accessory protein like 1) | 1 | 90.5 | 121 | – | – | inactive |
| Ranbp16 + Lcch3 | 1 | 155 | 118 | – | – | inactive |
| CG9997 | 1 | 153 | 205 | – | – | inactive |
| Obsc (Obscurin) | 1 | 171 | 154 | – | – | inactive |
| Obsc (Obscurin) | 2 | 133 | 148 | – | – | inactive |
| Obsc (Obscurin) | 3 | 151 | 158 | – | – | inactive |
| Obsc (Obscurin) | 4 | 118 | 127 | – | – | inactive |
| Obsc (Obscurin) | 5 | 93.2 | 161 | – | – | inactive |
| CG3740 | 1 | 99.2 | 178 | – | – | inactive |
| CSN1a (COP9 signalosome subunit 1a) | 1 | 108 | 112 | – | – | inactive |
| Wnk (Wnk kinase) | 1 | 113 | 193 | – | – | inactive |
| CG1924 | 1 | 79.7 | 94 | – | – | inactive |
| CG3649 | 1 | 124 | 228 | – | – | inactive |
| ptc (patched) | 1 | 48.8 | 86.9 | – | – | active |
| ptc (patched) | 2 | 129 | 201 | – | – | inactive |
| vig2 | 1 | 210 | 289 | – | – | inactive |
| CG9287 | 1 | 191 | 143 | 95.1 | 102 | inactive |
| CG9287 | 2 | 86.6 | 98.8 | – | – | inactive |
| Tep1 (Thioester-containing protein 1) | 1 | 119 | 113 | – | – | inactive |
| dgt4 (dim gamma-tubulin 4) | 1 | 131 | 125 | – | – | inactive |
| Tdh (L-threonine dehydrogenase) | 1 | 80.6 | 75.8 | – | – | inactive |
| Syx8 (Syntaxin 8) | 1 | 4074 | 65.6 | 219 | 86 | inactive |
| Syx8 (Syntaxin 8) | 2 | 108 | 176 | – | – | inactive |
| Dif (Dorsal-related immunity factor) | 1 | 102 | 142 | – | – | inactive |
| CG32809 | 1 | 116 | 87.6 | 149 | 125 | inactive |
| CG32809 | 2 | 74.6 | 79.4 | – | – | active |
